For assay [1], the target named is recombinant fragment of human surfactant protein D (rfhSP-D) (human) (UniProt P35247). The assay is described as follows: ELISA; rfhSP-D (1 µg/ml in PBS) coated, blocked, incubated with GRP78 (1 µg/ml in PBS); probed with rabbit anti-human SP-D polyclonal antibodies (loss of antibody signal as read-out); both purified.
Assay [2] shares this target. The assay is described as follows: condition: only with rfhSP-D bound to monoclonal antibodies specific to the CRD domain of SP-D; ELISA; rfhSP-D bound to monoclonal antibodies specific to the CRD domain of SP-D, then GRP78 (Figure 7A, Bar 4); set-up not told in the methods; both purified.
For assay [3], the target named is human recombinant GRP78 (Glucose Regulated Protein of 78 kDa) (human) (UniProt P11021). In words: ELISA; GRP78 (1 µg/ml in PBS) coated; rfhSP-D (1 µg/ml in PBS) added with and without 5 mM CaCl2, or 10 mM EDTA; bound rfhSP-D probed with rabbit anti-human SP-D polyclonal antibodies; both purified. In general terms: ELISA stands for enzyme-linked immunosorbent assay.

Chains of the proteins cited; added tags and fusions are not shown. Residues count along the entry.
UniProt P35247, residues 199-375: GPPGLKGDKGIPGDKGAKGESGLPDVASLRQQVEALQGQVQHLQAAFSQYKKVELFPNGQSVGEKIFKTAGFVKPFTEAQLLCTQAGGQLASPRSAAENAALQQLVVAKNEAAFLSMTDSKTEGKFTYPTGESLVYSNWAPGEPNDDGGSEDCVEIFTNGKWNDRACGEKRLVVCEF
UniProt P11021, residues 19-654: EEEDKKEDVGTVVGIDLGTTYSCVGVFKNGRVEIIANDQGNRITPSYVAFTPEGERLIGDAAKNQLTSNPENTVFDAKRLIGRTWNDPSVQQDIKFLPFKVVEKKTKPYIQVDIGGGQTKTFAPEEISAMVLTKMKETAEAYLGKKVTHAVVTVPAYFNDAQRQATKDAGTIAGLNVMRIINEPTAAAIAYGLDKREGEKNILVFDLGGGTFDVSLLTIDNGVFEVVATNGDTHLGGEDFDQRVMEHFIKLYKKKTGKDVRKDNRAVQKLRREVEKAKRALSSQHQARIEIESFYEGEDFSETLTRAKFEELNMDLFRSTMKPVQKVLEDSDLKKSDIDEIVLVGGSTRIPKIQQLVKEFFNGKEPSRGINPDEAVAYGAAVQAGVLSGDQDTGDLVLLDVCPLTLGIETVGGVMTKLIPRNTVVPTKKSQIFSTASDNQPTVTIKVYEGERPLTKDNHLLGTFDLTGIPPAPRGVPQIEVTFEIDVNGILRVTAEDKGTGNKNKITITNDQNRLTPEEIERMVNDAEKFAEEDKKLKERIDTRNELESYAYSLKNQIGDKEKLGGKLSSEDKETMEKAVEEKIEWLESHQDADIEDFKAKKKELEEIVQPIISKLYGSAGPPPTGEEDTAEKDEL

Results are given in words; binding and its absence hold for the method and conditions named. Some entries that bind do so weakly or less than the wild type.

This is an account of results in paper PMC7850985.

Regarding “human recombinant GRP78 (Glucose Regulated Protein of 78 kDa) (from UniProt P11021 19-654)”, the binding result in assay [1] was “binds”; in assay [2], “no binding”.
As to “recombinant fragment of human surfactant protein D (rfhSP-D) (from UniProt P35247 199-375) (domain or fragment)”, the binding result in assay [3] is “binds”.
